Measurements reported in PubChem BioAssay AID1053209 (Peter MacCallum Cancer Centre, 2014)
The whole screen tested about 1,580 reagents; shown is a part drawn at random. Of all reagents, 207 (13%) are marked active. 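Rows are single siRNAs; four siRNAs per gene were tested, a gene counting as confirmed only when at least two agree.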 The numbers tell different reagents against one gene apart. Further read-outs or replicates are left out here.

- Purpose: 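Gene losses that combine with doxorubicin to kill mouse bone cancer cells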 (follow-up of hits)
- Cells: mouse primary osteosarcoma cells
- Knock-down reagent: single siRNA against mouse genes, 25 nM (text also states 40 nM)
- Time to read-out: about 120 h (48 h before drug, then 72 h with drug)
- Treatment: doxorubicin 100 nM (about IC30-40), added 48 h after transfection, for 72 h
- Measurement: 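Viability measured by ATP luminescence with and without doxorubicin, each replicate scaled to non-targeting siRNA NT1, averaged over two replicates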
- Scale: viability with doxorubicin, vs NT1: higher = more viable cells under doxorubicin; viability without drug, vs NT1: higher = more viable cells without drug
- Rule for the call: 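Active when doxorubicin viability is at most 0.7 of NT1 and drug-free viability lies between 0.7 and 1.1, class LC dox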

Rps19 #1
- combined effect class: low viability with and without drug
- viability with doxorubicin, vs NT1: 0.61
- viability without drug, vs NT1: 0.64
- Outcome: inactive

Rps19 #2
- combined effect class: low viability with and without drug
- viability with doxorubicin, vs NT1: 0.67
- viability without drug, vs NT1: 0.66
- Outcome: inactive

Rps19 #3
- combined effect class: low viability with and without drug
- viability with doxorubicin, vs NT1: 0.26
- viability without drug, vs NT1: 0.3
- Outcome: inactive

Rps19 #4
- combined effect class: low viability with and without drug
- viability with doxorubicin, vs NT1: 0.5
- viability without drug, vs NT1: 0.46
- Outcome: inactive

Bid #1
- combined effect class: high viability only with doxorubicin
- viability with doxorubicin, vs NT1: 1.12
- viability without drug, vs NT1: 0.9
- Outcome: inactive

Bid #2
- combined effect class: normal viability with and without drug
- viability with doxorubicin, vs NT1: 1.08
- viability without drug, vs NT1: 0.99
- Outcome: inactive

Bid #3
- combined effect class: normal viability with and without drug
- viability with doxorubicin, vs NT1: 1.07
- viability without drug, vs NT1: 0.94
- Outcome: inactive

Bid #4
- combined effect class: high viability only with doxorubicin
- viability with doxorubicin, vs NT1: 1.19
- viability without drug, vs NT1: 0.96
- Outcome: inactive

Copb2 #1
- combined effect class: low viability with and without drug
- viability with doxorubicin, vs NT1: 0.37
- viability without drug, vs NT1: 0.58
- Outcome: inactive

Copb2 #2
- combined effect class: low viability with and without drug
- viability with doxorubicin, vs NT1: 0.08
- viability without drug, vs NT1: 0.22
- Outcome: inactive

Copb2 #3
- combined effect class: low viability with and without drug
- viability with doxorubicin, vs NT1: 0.48
- viability without drug, vs NT1: 0.65
- Outcome: inactive

Copb2 #4
- combined effect class: normal viability with and without drug
- viability with doxorubicin, vs NT1: 0.95
- viability without drug, vs NT1: 0.92
- Outcome: inactive

Slc39a7 #1
- combined effect class: normal viability with and without drug
- viability with doxorubicin, vs NT1: 0.86
- viability without drug, vs NT1: 0.92
- Outcome: inactive

Slc39a7 #2
- combined effect class: low viability only with doxorubicin; normal without drug
- viability with doxorubicin, vs NT1: 0.63
- viability without drug, vs NT1: 0.88
- Outcome: active

Slc39a7 #3
- combined effect class: normal viability with and without drug
- viability with doxorubicin, vs NT1: 0.73
- viability without drug, vs NT1: 0.97
- Outcome: inactive

Slc39a7 #4
- combined effect class: low viability only with doxorubicin; normal without drug
- viability with doxorubicin, vs NT1: 0.6
- viability without drug, vs NT1: 0.78
- Outcome: active

Srsf2 #1
- combined effect class: normal viability with and without drug
- viability with doxorubicin, vs NT1: 1.01
- viability without drug, vs NT1: 0.88
- Outcome: inactive

Srsf2 #2
- combined effect class: low viability with and without drug
- viability with doxorubicin, vs NT1: 0.56
- viability without drug, vs NT1: 0.7
- Outcome: inactive

Srsf2 #3
- combined effect class: normal viability with and without drug
- viability with doxorubicin, vs NT1: 1.04
- viability without drug, vs NT1: 0.82
- Outcome: inactive

Srsf2 #4
- combined effect class: normal viability with and without drug
- viability with doxorubicin, vs NT1: 0.92
- viability without drug, vs NT1: 0.87
- Outcome: inactive

Rap2c #1
- combined effect class: normal viability with and without drug
- viability with doxorubicin, vs NT1: 1
- viability without drug, vs NT1: 0.99
- Outcome: inactive

Rap2c #2
- combined effect class: normal viability with and without drug
- viability with doxorubicin, vs NT1: 0.94
- viability without drug, vs NT1: 0.97
- Outcome: inactive

Rap2c #3
- combined effect class: normal viability with and without drug
- viability with doxorubicin, vs NT1: 1.03
- viability without drug, vs NT1: 0.88
- Outcome: inactive

Rap2c #4
- combined effect class: normal viability with and without drug
- viability with doxorubicin, vs NT1: 0.98
- viability without drug, vs NT1: 0.96
- Outcome: inactive

Socs1 #1
- combined effect class: high viability only with doxorubicin
- viability with doxorubicin, vs NT1: 1.1
- viability without drug, vs NT1: 1.01
- Outcome: inactive

Socs1 #2
- combined effect class: high viability only with doxorubicin
- viability with doxorubicin, vs NT1: 1.14
- viability without drug, vs NT1: 1.02
- Outcome: inactive

Socs1 #3
- combined effect class: normal viability with and without drug
- viability with doxorubicin, vs NT1: 0.98
- viability without drug, vs NT1: 0.88
- Outcome: inactive

Socs1 #4
- combined effect class: normal viability with and without drug
- viability with doxorubicin, vs NT1: 0.84
- viability without drug, vs NT1: 1.06
- Outcome: inactive
